Experimental data: PubChem BioAssay AID602196 (INSERM, 2012)
The whole screen tested about 23,000 reagents; below is an unselected part. Of all reagents, 455 (2%) were called active. 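Active includes both protection and sensitisation; some change values fall well beyond the stated -50 to +50 range.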 Entries without a mark were called inactive. The record does not give: the amount of reagent.

Screen: 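Modifiers of cisplatin sensitivity in A549 cells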
Cell system: human A549 lung cancer cells
Reagent: siRNA pair against human genes
Time to read-out: 48 h transfection before cisplatin; time from cisplatin to read-out not stated
Conditions: cisplatin at a dose killing half of control-siRNA cells; exact dose and duration not given
Detection: 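Shift in cisplatin death relative to control siRNA, from -50 (all cells die) to +50 (no cells die); siRNAs harmful on their own scored 0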
Scale: two-siRNA summed score (-2 to +2): higher = both siRNAs protect from cisplatin killing; -2 means both sensitise; mean protection from cisplatin (shift in death) and protection from cisplatin (shift in death), siRNA C and protection from cisplatin (shift in death), siRNA D: higher = protection from cisplatin killing
Rule for the call: 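siRNAs harmful alone (LDH or WST-1) get 0; others get +1 for less and -1 for more cisplatin killing; genes are active when the two siRNAs give the same sign, summing to ±2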
Calls: active = both siRNAs shift cisplatin killing the same way; inactive = no consistent shift, or siRNA harmful alone

| gene | PubChem SID | two-siRNA summed score (-2 to +2) | mean protection from cisplatin (shift in death) (%) | protection from cisplatin (shift in death), siRNA C (%) | protection from cisplatin (shift in death), siRNA D (%) |
| --- | --- | --- | --- | --- | --- |
| LOC391779 | SID131519811 | 1 | 7.6 | -3 | 18.1 |
| PRLR | SID131504035 | 0 | -6.7 | -24.5 | 11 |
| ZC3H13 | SID131522135 | 1 | 16.4 | 9.5 | 23.3 |
| HSFY2 | SID131523009 | 2 (active) | 16.7 | 17.4 | 15.9 |
| TPD52L3 | SID131510787 | 0 | 3.6 | -12.1 | 19.3 |
| TPD52L3 | SID131522173 | 1 | 16.6 | 23.9 | 9.3 |
| ZNF66 | SID131520964 | 1 | 11.7 | 7.9 | 15.5 |
| LOC285214 | SID131518874 | 0 | 34.9 | 27.5 | 42.2 |
| MED4 | SID131517751 | 0 | 14.6 | 18.3 | 10.9 |
| ASNSD1 | SID131503031 | 0 | -15.6 | 2 | -33.2 |
| CLDN20 | SID131507468 | 0 | -0.1 | 1.2 | -1.4 |
| SLC12A6 | SID131511033 | 0 | 3.9 | -2.9 | 10.8 |
| PIGA | SID131522844 | 1 | 26.6 | 29 | 24.3 |
| SIPA1L3 | SID131514682 | 0 | 8.1 | 8.1 | 8.2 |
| DNAH17 | SID131518460 | 0 | 20 | 27.3 | 12.8 |
| DNAH17 | SID131518549 | 0 | 21.4 | 0.5 | 42.4 |
| LOC400877 | SID131511045 | 0 | 3.9 | 14.8 | -6.9 |
| TSSC4 | SID131522204 | 1 | 16.9 | 9.3 | 24.4 |
| RPL17 | SID131505278 | 0 | -3.4 | 1.5 | -8.3 |
| HEPHL1 | SID131514491 | 0 | 7.9 | 16.8 | -1.1 |
| ZNF611 | SID131505645 | 0 | -2.8 | 12.3 | -17.9 |
| CYYR1 | SID131515072 | 0 | 8.6 | 9.4 | 7.8 |
| LOC441214 | SID131508577 | 0 | 1.2 | 5.1 | -2.6 |
| FKRP | SID131511067 | 0 | 3.9 | 4.6 | 3.3 |
| ZNF562 | SID131501633 | -1 | -8.5 | -25.2 | 8.2 |

Continued; the last 3 above are carried over.
| gene | PubChem SID | two-siRNA summed score (-2 to +2) | mean protection from cisplatin (shift in death) (%) | protection from cisplatin (shift in death), siRNA C (%) | protection from cisplatin (shift in death), siRNA D (%) |
| --- | --- | --- | --- | --- | --- |
| LOC441214 | SID131508577 | 0 | 1.2 | 5.1 | -2.6 |
| FKRP | SID131511067 | 0 | 3.9 | 4.6 | 3.3 |
| ZNF562 | SID131501633 | -1 | -8.5 | -25.2 | 8.2 |
| ZNF121 | SID131509305 | 0 | 2 | -4.2 | 8.3 |
| MSL3 | SID131503913 | 0 | -7.2 | -11.8 | -2.6 |
| LOC91632 | SID131515238 | 0 | 8.9 | 17 | 0.7 |
| LOC392486 | SID131517866 | 0 | 15.1 | 18.7 | 11.5 |
| SGF29P1 | SID131518888 | 0 | 39 | 9.5 | 68.4 |
| NPM2 | SID131501094 | -1 | -12.4 | -12.5 | -12.3 |
| PRODH2 | SID131510083 | 0 | 2.9 | 18 | -12.3 |
| AP1G2 | SID131521228 | 1 | 12.7 | -1.4 | 26.8 |
| OAZ2 | SID131516137 | 0 | 10.3 | 11.8 | 8.8 |
| PROP1 | SID131500851 | -1 | -15.1 | -34.1 | 3.8 |
| RASGEF1A | SID131515089 | 0 | 8.6 | 14.6 | 2.6 |
| EDRF1 | SID131514715 | 0 | 8.2 | -0.5 | 16.8 |
| C3orf18 | SID131504970 | 0 | -4.1 | 1.7 | -9.8 |
| CACNA1F | SID131520010 | 1 | 8.3 | 12.9 | 3.8 |
